# Results: the supplement of paper PMC11438910
# This is one part of the list. The signal is at background level for most entries.
# B1: 4-99.3 (protein)
# chain 1: QVQLQESGPGLVKPSETLSLTCAVSGYSISSGYYWGWIRQPPGKGLEYIGYISGSWGKSYYKPSLKSRVTISKDTSKNQFSLTLSSVTAADTAVYYCARRLEYVGFDVWGPGVLVTVSS
# chain 2: QAAPTQPPSVSGSPGQSVTISCTGTSSDIGYYNAVSWYQQHPGKAPKLMIYEVSKRPSGVSDRFSGSKSGNTASLTISGLQAEDEADYYCSSYAGSNTYIFGSGTRLTVL
# What was measured:
# Test in all cases: fluorescence intensity of antibody binding to polysaccharide-coupled beads; higher = stronger binding
# [1] = target: pneumococcal polysaccharide Pn44
# [2] = target: pneumococcal polysaccharide Pn45
# [3] = target: pneumococcal polysaccharide Pn46
# [4] = target: pneumococcal polysaccharide Pn47A
# [5] = target: pneumococcal polysaccharide Pn47F
# [6] = target: pneumococcal polysaccharide Pn48
# [7] = target: pneumococcal polysaccharide Pn5
# [8] = target: pneumococcal polysaccharide Pn6A
# [9] = target: pneumococcal polysaccharide Pn6B
# [10] = target: pneumococcal polysaccharide Pn6C
# [11] = target: pneumococcal polysaccharide Pn6D
# [12] = target: pneumococcal polysaccharide Pn7A
# [13] = target: pneumococcal polysaccharide Pn7B
# [14] = target: pneumococcal polysaccharide Pn7C
# [15] = target: pneumococcal polysaccharide Pn7F
# [16] = target: pneumococcal polysaccharide Pn8
# [17] = target: pneumococcal polysaccharide Pn9A
# [18] = target: pneumococcal polysaccharide Pn9L
# [19] = target: pneumococcal polysaccharide Pn9N
# [20] = target: pneumococcal polysaccharide Pn9V
# [21] = antibody concentration 0.1 ng/mL
# [22] = antibody concentration 0.534724 ng/mL
# [23] = antibody concentration 2.8593 ng/mL
# [24] = antibody concentration 15.2894 ng/mL
# [25] = antibody concentration 81.7561 ng/mL
# [26] = antibody concentration 437.17 ng/mL
# [27] = antibody concentration 2337.65 ng/mL
# [28] = antibody concentration 12500 ng/mL
binder,measurement,setting,value
B1,fluorescence intensity,[1]; [21],24 MFI
same,fluorescence intensity,[1]; [22],23.5 MFI
same,fluorescence intensity,[1]; [23],23.5 MFI
same,fluorescence intensity,[1]; [24],23.5 MFI
same,fluorescence intensity,[1]; [25],23.5 MFI
same,fluorescence intensity,[1]; [26],25.8 MFI
same,fluorescence intensity,[1]; [27],27.5 MFI
same,fluorescence intensity,[1]; [28],50.8 MFI
same,fluorescence intensity,[2]; [21],10.8 MFI
same,fluorescence intensity,[2]; [22],9.5 MFI
same,fluorescence intensity,[2]; [23],11 MFI
same,fluorescence intensity,[2]; [24],10.8 MFI
same,fluorescence intensity,[2]; [25],11.5 MFI
same,fluorescence intensity,[2]; [26],11 MFI
same,fluorescence intensity,[2]; [27],14.5 MFI
same,fluorescence intensity,[2]; [28],29 MFI
same,fluorescence intensity,[3]; [21],23.5 MFI
same,fluorescence intensity,[3]; [22],22.5 MFI
same,fluorescence intensity,[3]; [23],22.5 MFI
same,fluorescence intensity,[3]; [24],22 MFI
same,fluorescence intensity,[3]; [25],23 MFI
same,fluorescence intensity,[3]; [26],25 MFI
same,fluorescence intensity,[3]; [27],33.2 MFI
same,fluorescence intensity,[3]; [28],160 MFI
same,fluorescence intensity,[4]; [21],15 MFI
same,fluorescence intensity,[4]; [22],15.5 MFI
same,fluorescence intensity,[4]; [23],14.5 MFI
same,fluorescence intensity,[4]; [24],15.5 MFI
same,fluorescence intensity,[4]; [25],16 MFI
same,fluorescence intensity,[4]; [26],15 MFI
same,fluorescence intensity,[4]; [27],18.5 MFI
same,fluorescence intensity,[4]; [28],51 MFI
same,fluorescence intensity,[5]; [21],11 MFI
same,fluorescence intensity,[5]; [22],11.5 MFI
same,fluorescence intensity,[5]; [23],11 MFI
same,fluorescence intensity,[5]; [24],11.5 MFI
same,fluorescence intensity,[5]; [25],12.5 MFI
same,fluorescence intensity,[5]; [26],12.2 MFI
same,fluorescence intensity,[5]; [27],19.5 MFI
same,fluorescence intensity,[5]; [28],158 MFI
same,fluorescence intensity,[6]; [21],20.5 MFI
same,fluorescence intensity,[6]; [22],19.8 MFI
same,fluorescence intensity,[6]; [23],20 MFI
same,fluorescence intensity,[6]; [24],21 MFI
same,fluorescence intensity,[6]; [25],21.5 MFI
same,fluorescence intensity,[6]; [26],24.8 MFI
same,fluorescence intensity,[6]; [27],29 MFI
same,fluorescence intensity,[6]; [28],86.5 MFI
same,fluorescence intensity,[7]; [21],8.25 MFI
same,fluorescence intensity,[7]; [22],8 MFI
same,fluorescence intensity,[7]; [23],9 MFI
same,fluorescence intensity,[7]; [24],9 MFI
same,fluorescence intensity,[7]; [25],9.5 MFI
same,fluorescence intensity,[7]; [26],11.5 MFI
same,fluorescence intensity,[7]; [27],20.5 MFI
same,fluorescence intensity,[7]; [28],183 MFI
same,fluorescence intensity,[8]; [21],20.5 MFI
same,fluorescence intensity,[8]; [22],19.8 MFI
same,fluorescence intensity,[8]; [23],20.5 MFI
same,fluorescence intensity,[8]; [24],21.8 MFI
same,fluorescence intensity,[8]; [25],20.8 MFI
same,fluorescence intensity,[8]; [26],25.5 MFI
same,fluorescence intensity,[8]; [27],28.8 MFI
same,fluorescence intensity,[8]; [28],57.8 MFI
same,fluorescence intensity,[9]; [21],18.5 MFI
same,fluorescence intensity,[9]; [22],19.2 MFI
same,fluorescence intensity,[9]; [23],17.8 MFI
same,fluorescence intensity,[9]; [24],20 MFI
same,fluorescence intensity,[9]; [25],17 MFI
same,fluorescence intensity,[9]; [26],22 MFI
same,fluorescence intensity,[9]; [27],25.2 MFI
same,fluorescence intensity,[9]; [28],62.5 MFI
same,fluorescence intensity,[10]; [21],22 MFI
same,fluorescence intensity,[10]; [22],54 MFI
same,fluorescence intensity,[10]; [23],53 MFI
same,fluorescence intensity,[10]; [24],77 MFI
same,fluorescence intensity,[10]; [25],66.5 MFI
same,fluorescence intensity,[10]; [26],76 MFI
same,fluorescence intensity,[10]; [27],92.2 MFI
same,fluorescence intensity,[10]; [28],112 MFI
same,fluorescence intensity,[11]; [21],19 MFI
same,fluorescence intensity,[11]; [22],15 MFI
same,fluorescence intensity,[11]; [23],17.5 MFI
same,fluorescence intensity,[11]; [24],15.2 MFI
same,fluorescence intensity,[11]; [25],16 MFI
same,fluorescence intensity,[11]; [26],17.8 MFI
same,fluorescence intensity,[11]; [27],23.8 MFI
same,fluorescence intensity,[11]; [28],37.5 MFI
same,fluorescence intensity,[12]; [21],21.5 MFI
same,fluorescence intensity,[12]; [22],18.5 MFI
same,fluorescence intensity,[12]; [23],19 MFI
same,fluorescence intensity,[12]; [24],19.8 MFI
same,fluorescence intensity,[12]; [25],20.2 MFI
same,fluorescence intensity,[12]; [26],23 MFI
same,fluorescence intensity,[12]; [27],93 MFI
same,fluorescence intensity,[12]; [28],694 MFI
same,fluorescence intensity,[13]; [21],17 MFI
same,fluorescence intensity,[13]; [22],16 MFI
same,fluorescence intensity,[13]; [23],14 MFI
same,fluorescence intensity,[13]; [24],15.5 MFI
same,fluorescence intensity,[13]; [25],15.5 MFI
same,fluorescence intensity,[13]; [26],16.5 MFI
same,fluorescence intensity,[13]; [27],28.5 MFI
same,fluorescence intensity,[13]; [28],96 MFI
same,fluorescence intensity,[14]; [21],17 MFI
same,fluorescence intensity,[14]; [22],15 MFI
same,fluorescence intensity,[14]; [23],15.5 MFI
same,fluorescence intensity,[14]; [24],17 MFI
same,fluorescence intensity,[14]; [25],16.2 MFI
same,fluorescence intensity,[14]; [26],16 MFI
same,fluorescence intensity,[14]; [27],25.8 MFI
same,fluorescence intensity,[14]; [28],93.8 MFI
same,fluorescence intensity,[15]; [21],14 MFI
same,fluorescence intensity,[15]; [22],14 MFI
same,fluorescence intensity,[15]; [23],14.5 MFI
same,fluorescence intensity,[15]; [24],14 MFI
same,fluorescence intensity,[15]; [25],16 MFI
same,fluorescence intensity,[15]; [26],20.5 MFI
same,fluorescence intensity,[15]; [27],43.8 MFI
same,fluorescence intensity,[15]; [28],402 MFI
same,fluorescence intensity,[16]; [21],20 MFI
same,fluorescence intensity,[16]; [22],19.5 MFI
same,fluorescence intensity,[16]; [23],20.5 MFI
same,fluorescence intensity,[16]; [24],21 MFI
same,fluorescence intensity,[16]; [25],21.5 MFI
same,fluorescence intensity,[16]; [26],26.8 MFI
same,fluorescence intensity,[16]; [27],31.8 MFI
same,fluorescence intensity,[16]; [28],77 MFI
same,fluorescence intensity,[17]; [21],19 MFI
same,fluorescence intensity,[17]; [22],18.5 MFI
same,fluorescence intensity,[17]; [23],18 MFI
same,fluorescence intensity,[17]; [24],20.5 MFI
same,fluorescence intensity,[17]; [25],19 MFI
same,fluorescence intensity,[17]; [26],20 MFI
same,fluorescence intensity,[17]; [27],33.8 MFI
same,fluorescence intensity,[17]; [28],97.8 MFI
same,fluorescence intensity,[18]; [21],17.5 MFI
same,fluorescence intensity,[18]; [22],16.2 MFI
same,fluorescence intensity,[18]; [23],15 MFI
same,fluorescence intensity,[18]; [24],17.5 MFI
same,fluorescence intensity,[18]; [25],17 MFI
same,fluorescence intensity,[18]; [26],18.8 MFI
same,fluorescence intensity,[18]; [27],25 MFI
same,fluorescence intensity,[18]; [28],73.5 MFI
same,fluorescence intensity,[19]; [21],17.5 MFI
same,fluorescence intensity,[19]; [22],14.8 MFI
same,fluorescence intensity,[19]; [23],15 MFI
same,fluorescence intensity,[19]; [24],15.2 MFI
same,fluorescence intensity,[19]; [25],14.5 MFI
same,fluorescence intensity,[19]; [26],17 MFI
same,fluorescence intensity,[19]; [27],28.5 MFI
same,fluorescence intensity,[19]; [28],80 MFI
same,fluorescence intensity,[20]; [21],14.8 MFI
same,fluorescence intensity,[20]; [22],14 MFI
same,fluorescence intensity,[20]; [23],13.2 MFI
same,fluorescence intensity,[20]; [24],14 MFI
same,fluorescence intensity,[20]; [25],15.2 MFI
same,fluorescence intensity,[20]; [26],16 MFI
same,fluorescence intensity,[20]; [27],18 MFI
same,fluorescence intensity,[20]; [28],37 MFI

# Reformatted with tabs: entries from further up.
binder	measurement	setting	value
B1	fluorescence intensity	[9]; [26]	22 MFI
same	fluorescence intensity	[9]; [27]	25.2 MFI
same	fluorescence intensity	[9]; [28]	62.5 MFI

# Three records picked at random from those above, as already listed:
binder,measurement,setting,value
B1,fluorescence intensity,[16]; [25],21.5 MFI
same,fluorescence intensity,[10]; [28],112 MFI
same,fluorescence intensity,[18]; [28],73.5 MFI

# Another view of part of the listing above:
binder	measurement	setting	value
B1	fluorescence intensity	[12]; [24]	19.8 MFI
same	fluorescence intensity	[12]; [25]	20.2 MFI
same	fluorescence intensity	[12]; [26]	23 MFI
same	fluorescence intensity	[12]; [27]	93 MFI
same	fluorescence intensity	[12]; [28]	694 MFI
